Laboratory results published in article PMC6443784.
No constants are given. Whether binding was seen depends on the method and setting. Binding seen in cells or lysates may run through a third protein. Some results given as binding are weak or reduced against the parent protein; the word gives no strength. For part of these data: Tags and fused reporters may be left off the sequences shown. Each block holds one molecule with its values, some of them ahead of it.

Sequences of proteins named here, by UniProt entry; tags and fusion partners are left off.
UniProt Q80TA9: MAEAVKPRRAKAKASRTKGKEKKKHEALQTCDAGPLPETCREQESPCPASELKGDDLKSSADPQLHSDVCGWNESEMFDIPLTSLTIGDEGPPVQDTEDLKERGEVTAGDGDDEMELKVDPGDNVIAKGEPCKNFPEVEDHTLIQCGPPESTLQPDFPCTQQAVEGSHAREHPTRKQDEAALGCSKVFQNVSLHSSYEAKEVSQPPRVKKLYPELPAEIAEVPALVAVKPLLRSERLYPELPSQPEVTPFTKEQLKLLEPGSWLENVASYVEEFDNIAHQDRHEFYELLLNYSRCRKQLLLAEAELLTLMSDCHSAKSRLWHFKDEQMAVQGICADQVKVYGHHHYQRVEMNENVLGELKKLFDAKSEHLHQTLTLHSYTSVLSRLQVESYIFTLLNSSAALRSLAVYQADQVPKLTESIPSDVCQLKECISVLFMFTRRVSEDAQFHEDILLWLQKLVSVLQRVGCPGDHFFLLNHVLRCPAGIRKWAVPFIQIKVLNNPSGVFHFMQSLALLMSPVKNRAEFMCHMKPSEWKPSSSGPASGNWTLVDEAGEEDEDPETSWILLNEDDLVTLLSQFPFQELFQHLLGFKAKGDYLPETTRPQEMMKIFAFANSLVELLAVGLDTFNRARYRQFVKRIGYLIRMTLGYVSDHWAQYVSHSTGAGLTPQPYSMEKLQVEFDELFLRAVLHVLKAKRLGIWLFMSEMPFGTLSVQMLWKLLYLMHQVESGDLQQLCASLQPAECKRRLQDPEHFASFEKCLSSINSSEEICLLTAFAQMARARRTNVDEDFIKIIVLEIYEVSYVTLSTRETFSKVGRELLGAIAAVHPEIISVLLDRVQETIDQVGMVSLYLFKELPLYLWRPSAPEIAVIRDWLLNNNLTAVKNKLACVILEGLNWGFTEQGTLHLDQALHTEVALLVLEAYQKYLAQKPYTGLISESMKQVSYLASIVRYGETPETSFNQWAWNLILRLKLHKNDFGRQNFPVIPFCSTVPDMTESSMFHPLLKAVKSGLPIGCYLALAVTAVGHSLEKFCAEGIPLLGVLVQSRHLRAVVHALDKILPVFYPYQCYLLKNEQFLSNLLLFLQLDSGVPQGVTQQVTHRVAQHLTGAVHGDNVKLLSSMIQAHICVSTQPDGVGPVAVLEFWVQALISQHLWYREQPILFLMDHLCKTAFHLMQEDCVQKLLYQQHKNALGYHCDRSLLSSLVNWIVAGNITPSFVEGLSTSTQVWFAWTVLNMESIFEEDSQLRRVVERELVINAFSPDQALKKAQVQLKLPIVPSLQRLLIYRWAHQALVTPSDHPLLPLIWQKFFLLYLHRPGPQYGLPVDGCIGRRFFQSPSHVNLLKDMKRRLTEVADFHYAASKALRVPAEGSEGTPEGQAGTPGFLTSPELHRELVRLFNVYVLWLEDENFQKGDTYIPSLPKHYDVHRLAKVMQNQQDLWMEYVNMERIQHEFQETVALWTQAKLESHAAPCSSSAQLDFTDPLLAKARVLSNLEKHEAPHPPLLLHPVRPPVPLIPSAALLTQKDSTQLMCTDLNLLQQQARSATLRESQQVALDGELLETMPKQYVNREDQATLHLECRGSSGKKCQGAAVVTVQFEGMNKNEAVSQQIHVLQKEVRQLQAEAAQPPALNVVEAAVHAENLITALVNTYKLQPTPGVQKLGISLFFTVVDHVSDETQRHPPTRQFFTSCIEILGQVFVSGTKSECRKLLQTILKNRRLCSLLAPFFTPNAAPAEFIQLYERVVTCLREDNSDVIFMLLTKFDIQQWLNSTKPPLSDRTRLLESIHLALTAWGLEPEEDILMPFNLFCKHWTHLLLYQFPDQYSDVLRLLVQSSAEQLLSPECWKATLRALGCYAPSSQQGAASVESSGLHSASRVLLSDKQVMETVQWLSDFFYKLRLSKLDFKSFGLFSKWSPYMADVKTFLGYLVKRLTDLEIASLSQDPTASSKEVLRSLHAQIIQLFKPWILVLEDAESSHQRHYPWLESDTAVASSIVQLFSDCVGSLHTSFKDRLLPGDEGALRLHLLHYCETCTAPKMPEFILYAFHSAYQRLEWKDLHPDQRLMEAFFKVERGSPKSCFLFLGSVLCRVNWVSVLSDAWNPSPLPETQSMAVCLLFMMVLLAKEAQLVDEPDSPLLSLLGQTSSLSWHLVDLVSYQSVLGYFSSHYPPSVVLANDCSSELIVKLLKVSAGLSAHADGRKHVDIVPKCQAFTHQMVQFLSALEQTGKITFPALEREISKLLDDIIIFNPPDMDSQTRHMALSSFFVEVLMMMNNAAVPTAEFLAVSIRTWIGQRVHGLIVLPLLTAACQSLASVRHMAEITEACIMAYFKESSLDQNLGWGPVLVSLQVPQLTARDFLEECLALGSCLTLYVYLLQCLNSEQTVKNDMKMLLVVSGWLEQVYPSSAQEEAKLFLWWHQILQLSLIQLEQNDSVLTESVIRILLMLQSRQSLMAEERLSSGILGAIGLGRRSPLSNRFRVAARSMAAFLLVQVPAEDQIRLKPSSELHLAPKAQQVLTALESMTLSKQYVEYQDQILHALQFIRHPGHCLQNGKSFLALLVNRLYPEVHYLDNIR

Experiments:
[1] = biological target: T1, USP8 (endogenous, mouse ESCs) (mouse (endogenous in mouse ESCs)) (UniProt Q80U87); test: co-IP; endogenous proteins in ESCs, immunoprecipitation with anti-USP8 antibody, blot for EPG5
T1 sequence: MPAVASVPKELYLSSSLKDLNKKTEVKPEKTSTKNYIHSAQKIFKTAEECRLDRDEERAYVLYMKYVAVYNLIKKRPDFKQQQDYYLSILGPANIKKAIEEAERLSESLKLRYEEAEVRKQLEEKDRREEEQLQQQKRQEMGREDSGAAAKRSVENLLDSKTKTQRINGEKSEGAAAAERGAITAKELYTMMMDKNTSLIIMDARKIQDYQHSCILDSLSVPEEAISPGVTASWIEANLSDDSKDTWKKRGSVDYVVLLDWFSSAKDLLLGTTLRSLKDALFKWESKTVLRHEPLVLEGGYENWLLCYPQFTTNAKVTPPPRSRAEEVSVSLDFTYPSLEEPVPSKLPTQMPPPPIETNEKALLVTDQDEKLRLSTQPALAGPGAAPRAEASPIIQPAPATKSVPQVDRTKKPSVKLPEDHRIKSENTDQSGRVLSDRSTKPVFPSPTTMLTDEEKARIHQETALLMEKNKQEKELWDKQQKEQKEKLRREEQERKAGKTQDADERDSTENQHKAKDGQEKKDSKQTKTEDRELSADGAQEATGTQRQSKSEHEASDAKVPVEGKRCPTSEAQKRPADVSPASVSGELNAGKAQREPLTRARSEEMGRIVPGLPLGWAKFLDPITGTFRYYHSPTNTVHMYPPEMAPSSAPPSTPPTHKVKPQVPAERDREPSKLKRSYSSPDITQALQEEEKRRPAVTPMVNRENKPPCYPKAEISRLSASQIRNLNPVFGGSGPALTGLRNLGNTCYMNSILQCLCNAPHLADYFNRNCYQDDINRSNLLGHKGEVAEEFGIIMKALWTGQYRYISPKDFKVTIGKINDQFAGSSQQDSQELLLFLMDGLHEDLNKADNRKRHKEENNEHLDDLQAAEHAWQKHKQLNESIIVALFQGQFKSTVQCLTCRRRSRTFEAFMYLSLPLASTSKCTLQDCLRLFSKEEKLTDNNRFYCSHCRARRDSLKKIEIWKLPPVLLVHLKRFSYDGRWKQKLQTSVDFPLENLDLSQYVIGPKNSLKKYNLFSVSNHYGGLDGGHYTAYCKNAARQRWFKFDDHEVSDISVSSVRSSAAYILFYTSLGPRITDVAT

Flag-tagged EPG5 (mouse) = Flag-tagged EPG5 (mouse) (UniProt Q80TA9); test: co-IP; HEK293T cells transfected with Flag-Epg5 and/or HA-Usp8; lysis buffer 50 mM Tris-HCl pH 7.4, 150 mM NaCl, 1% NP-40, 0.5% sodium deoxycholate, 0.1% SDS; A/G agarose beads overnight at 4 °C
[2] = biological target: HA-EPG5 (stable ESC line) (mouse) (UniProt Q80TA9); test: co-IP; stable ESC lines harboring HA-EPG5 and/or Myc-USP8 vectors; lysates

binding [1]: binds
Molecule: EPG5 (endogenous, mouse ESCs) (from UniProt Q80TA9 1-2572)

binding (Flag-tagged EPG5 (mouse)): binds
B1: HA-tagged USP8 (enzyme, UniProt Q80U87 1-1080)
chain: T1 sequence

binding [2]: binds
B2: Myc-USP8 (stable ESC line) (enzyme, UniProt Q80U87 1-1080)
chain: T1 sequence
